# From publication PMC8384837
# Residue numbers refer to the chain shown, from its start. Some of the results follow. At the low end of the ranking the order means little.
# Assays:
# Conditions in all cases: yeast three-hybrid, YBZ-1, SC-Leu-His + 0.5 mM 3-AT, 4 days
# [1] = target: T1, PUM1 PUF domain R4-LHR N971L + Q975R (UniProt Q14671)
# T1 sequence: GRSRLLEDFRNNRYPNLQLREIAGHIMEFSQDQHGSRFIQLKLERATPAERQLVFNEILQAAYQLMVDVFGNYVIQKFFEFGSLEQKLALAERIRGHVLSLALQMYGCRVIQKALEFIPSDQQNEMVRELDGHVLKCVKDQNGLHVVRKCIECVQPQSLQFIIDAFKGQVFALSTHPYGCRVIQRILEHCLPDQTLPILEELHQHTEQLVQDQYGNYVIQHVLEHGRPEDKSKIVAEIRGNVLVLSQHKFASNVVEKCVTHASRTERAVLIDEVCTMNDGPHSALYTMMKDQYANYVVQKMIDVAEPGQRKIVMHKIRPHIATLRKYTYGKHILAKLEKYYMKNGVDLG
# [2] = target: T2, PUM1 PUF domain R4-LNA N971L + H972N + Q975A (UniProt Q14671)
# T2 sequence: T1 sequence with H145N, R148A
# [3] = target: T3, PUM1 PUF domain R4-LNC N971L + H972N + Q975C (UniProt Q14671)
# T3 sequence: T1 sequence with H145N, R148C
# [4] = target: T4, PUM1 PUF domain R4-LRC N971L + H972R + Q975C (UniProt Q14671)
# T4 sequence: T1 sequence with H145R, R148C
# [5] = target: T5, PUM1 PUF domain R4-MLC N971M + H972L + Q975C (UniProt Q14671)
# T5 sequence: T1 sequence with L144M, H145L, R148C
# [6] = target: T6, PUM1 PUF domain R4-MNR N971M + H972N + Q975R (UniProt Q14671)
# T6 sequence: T1 sequence with L144M, H145N
# [7] = target: T7, PUM1 PUF domain R4-MNV N971M + H972N + Q975V (UniProt Q14671)
# T7 sequence: T1 sequence with L144M, H145N, R148V
# [8] = target: T8, PUM1 PUF domain R4-MPG N971M + H972P + Q975G (UniProt Q14671)
# T8 sequence: T1 sequence with L144M, H145P, R148G
# [9] = target: T9, PUM1 PUF domain R4-MPH N971M + H972P + Q975H (UniProt Q14671)
# T9 sequence: T1 sequence with L144M, H145P, R148H
# [10] = target: T10, PUM1 PUF domain R4-MPS N971M + H972P + Q975S (UniProt Q14671)
# T10 sequence: T1 sequence with L144M, H145P, R148S
# [11] = target: T11, PUM1 PUF domain R4-MPV N971M + H972P + Q975V (UniProt Q14671)
# T11 sequence: T1 sequence with L144M, H145P, R148V
# [12] = target: T12, PUM1 PUF domain R4-MRG N971M + H972R + Q975G (UniProt Q14671)
# T12 sequence: T1 sequence with L144M, H145R, R148G
# [13] = target: T13, PUM1 PUF domain R4-NCG H972C + Q975G (UniProt Q14671)
# T13 sequence: T1 sequence with L144N, H145C, R148G
# [14] = target: T14, PUM1 PUF domain R4-NNG H972N + Q975G (UniProt Q14671)
# T14 sequence: T1 sequence with L144N, H145N, R148G
# [15] = target: T15, PUM1 PUF domain R4-NNL H972N + Q975L (UniProt Q14671)
# T15 sequence: T1 sequence with L144N, H145N, R148L
# [16] = target: T16, PUM1 PUF domain R4-NNV H972N + Q975V (UniProt Q14671)
# T16 sequence: T1 sequence with L144N, H145N, R148V
# [17] = target: T17, PUM1 PUF domain R4-NNW H972N + Q975W (UniProt Q14671)
# T17 sequence: T1 sequence with L144N, H145N, R148W
# [18] = target: T18, PUM1 PUF domain R4-NPA H972P + Q975A (UniProt Q14671)
# T18 sequence: T1 sequence with L144N, H145P, R148A
# [19] = target: T19, PUM1 PUF domain R4-NPG H972P + Q975G (UniProt Q14671)
# T19 sequence: T1 sequence with L144N, H145P, R148G
# [20] = target: T20, PUM1 PUF domain R4-NRG H972R + Q975G (UniProt Q14671)
# T20 sequence: T1 sequence with L144N, H145R, R148G
# [21] = target: T21, PUM1 PUF domain R4-NWP H972W + Q975P (UniProt Q14671)
# T21 sequence: T1 sequence with L144N, H145W, R148P
# [22] = target: T22, PUM1 PUF domain R4-NYP H972Y + Q975P (UniProt Q14671)
# T22 sequence: T1 sequence with L144N, H145Y, R148P
# [23] = target: T23, PUM1 PUF domain R4-PFD N971P + H972F + Q975D (UniProt Q14671)
# T23 sequence: T1 sequence with L144P, H145F, R148D
# [24] = target: T24, PUM1 PUF domain R4-PFF N971P + H972F + Q975F (UniProt Q14671)
# T24 sequence: T1 sequence with L144P, H145F, R148F
# [25] = target: T25, PUM1 PUF domain R4-PFG N971P + H972F + Q975G (UniProt Q14671)
# T25 sequence: T1 sequence with L144P, H145F, R148G
# [26] = target: T26, PUM1 PUF domain R4-PFN N971P + H972F + Q975N (UniProt Q14671)
# T26 sequence: T1 sequence with L144P, H145F, R148N
# [27] = target: T27, PUM1 PUF domain R4-PFR N971P + H972F + Q975R (UniProt Q14671)
# T27 sequence: T1 sequence with L144P, H145F
# [28] = target: T28, PUM1 PUF domain R4-PFS N971P + H972F + Q975S (UniProt Q14671)
# T28 sequence: T1 sequence with L144P, H145F, R148S
# [29] = target: T29, PUM1 PUF domain R4-PFT N971P + H972F + Q975T (UniProt Q14671)
# T29 sequence: T1 sequence with L144P, H145F, R148T
# [30] = target: T30, PUM1 PUF domain R4-PFV N971P + H972F + Q975V (UniProt Q14671)
# T30 sequence: T1 sequence with L144P, H145F, R148V
sequence,measurement,setting,value
GGCUAGAACUAGUGGAUCCCCCGGCGCCCGGCGGCUCGAGCCCGGGUAAGUGUAGAUAGUCUGCAUGCCGCCGGGCGCCAUGCCUGCAGGUCGACUCUAGAAAACAUG,binding signal (log2 enrichment (interaction score)),[1],< -6.15
same,binding signal (log2 enrichment (interaction score)),[2],< -6.34
same,binding signal (log2 enrichment (interaction score)),[3],< -7.29
same,binding signal (log2 enrichment (interaction score)),[4],< -6.8
same,binding signal (log2 enrichment (interaction score)),[5],< -5.51
same,binding signal (log2 enrichment (interaction score)),[6],< -6.13
same,binding signal (log2 enrichment (interaction score)),[7],< -5.62
same,binding signal (log2 enrichment (interaction score)),[8],< -5.57
same,binding signal (log2 enrichment (interaction score)),[9],< -7.23
same,binding signal (log2 enrichment (interaction score)),[10],< -6.2
same,binding signal (log2 enrichment (interaction score)),[11],< -5.69
same,binding signal (log2 enrichment (interaction score)),[12],< -6.19
same,binding signal (log2 enrichment (interaction score)),[13],< -6.65
same,binding signal (log2 enrichment (interaction score)),[14],< -5.72
same,binding signal (log2 enrichment (interaction score)),[15],< -6.11
same,binding signal (log2 enrichment (interaction score)),[16],< -6.74
same,binding signal (log2 enrichment (interaction score)),[17],< -5.53
same,binding signal (log2 enrichment (interaction score)),[18],< -6.06
same,binding signal (log2 enrichment (interaction score)),[19],< -6.94
same,binding signal (log2 enrichment (interaction score)),[20],< -6.17
same,binding signal (log2 enrichment (interaction score)),[21],-2.46
same,binding signal (log2 enrichment (interaction score)),[22],-2.7
same,binding signal (log2 enrichment (interaction score)),[23],< -5.48
same,binding signal (log2 enrichment (interaction score)),[24],< -6.02
same,binding signal (log2 enrichment (interaction score)),[25],< -7.01
same,binding signal (log2 enrichment (interaction score)),[26],< -5.38
same,binding signal (log2 enrichment (interaction score)),[27],< -7.82
same,binding signal (log2 enrichment (interaction score)),[28],< -7.34
same,binding signal (log2 enrichment (interaction score)),[29],< -5.95
same,binding signal (log2 enrichment (interaction score)),[30],< -7.56

# Quoted at random: two entries already listed, in no set order.
sequence,measurement,setting,value
GGCUAGAACUAGUGGAUCCCCCGGCGCCCGGCGGCUCGAGCCCGGGUAAGUGUAGAUAGUCUGCAUGCCGCCGGGCGCCAUGCCUGCAGGUCGACUCUAGAAAACAUG,binding signal (log2 enrichment (interaction score)),[15],< -6.11
same,binding signal (log2 enrichment (interaction score)),[16],< -6.74
